Literature values in US20070197473A1, “Methods of using SAHA and Bortezomib for treating cancer” (priority 2005, published 2007).

Tested on: carcinogen-induced (N-methylnitrosourea) mammary tumors
Details: rats; SAHA administered in diet over the 130 days of the study

Compound: O=C(CCCCCCC(=O)Nc1ccccc1)NO [SAHA, N-Hydroxy-N′-phenyl octanediamide]
- inhibition of development and continued growth of mammary tumors: effective at inhibiting the development and continued growth
